Results from PubChem BioAssay AID2101 (National Center for Advancing Translational Sciences (NCATS), 2009).
The campaign covered roughly 330,000 compounds. About 300 (0.091%) were called active. Only results without a clear call are listed here; the source files them as inconclusive. Calls come from the whole dose curve; as a rule, active = well fitted inhibition curve with a large enough effect; inconclusive = small, poorly fitted or top-dose-only effect, or effect the other way, or another doubt; inactive = no such curve, though single readings can be large or run the other way. Some tests of the compounds listed are not included; inactive here does not mean inactive elsewhere.

Each compound was assayed against Lysosomal acid glucosylceramidase (Homo sapiens) (UniProt P04062) (assay: qHTS Assay for Inhibitors and Activators of N370S glucocerebrosidase as a Potential Chaperone Treatment of Gaucher Disease). Settings: N370S GC spleen homogenate, 4MU-glucoside fluorescence.
Excerpt: NIH Chemical Genomics Center [NCGC]
NIH Molecular Libraries Probe Production Centers Network [MLPCN]
Assay Submitter (PI): Wei Zheng
Glucocerebrosidase (GC) catalyzes the hydrolysis of beta-glucocerebroside to glucose and ceramide in lysosomes. Mutations in the glucocerebrosidase gene result in Gaucher disease, an autosomal recessive lysosomal storage disorder. Many of the mutations encountered in patients with Gaucher disease are missense alterations that may cause misfolding, decreased stability and/or mistrafficking of this lysosomal protein. […] These inhibitors include iminosugar analogs and three non-iminosugar inhibitors identified from a previous HTS of 62,000 compounds with the wild type recombinant enzyme. […]
This is a fluorogenic enzyme assay with 4-methylumbelliferyl-beta-D-glucopyranoside as the substrate and N370S glucocerebrosidase from human spleen homogenate as the enzyme preparation. Upon the hydrolysis of this fluorogenic substrate, the resulting product, […] which can be detected by a standard fluorescence plate reader. […] The AC50 values were determined from concentration-response data modeled with the standard Hill equation. […]
(6) Detect the assay plate in a ViewLux plate reader (PerkinElmer) with Ex=365 nm and Em=440nm. […]
Potency is the fitted concentration of half-maximal effect.

Question: For CC(C)Oc1ccc(C(=O)NCC2(N(C)C)CCCCC2)cc1, which Potency is on record?
Answer: inconclusive: 3.55 µM
